Experimental data: the supplement of paper PMC6411743
± gives the standard deviation of the averaged measurements. The entries are a selection whose mix differs from that of the whole data set.

Protein sequences, listed by entry. Tags and fused reporters are not part of them. Lines headed by an entry give the natural chain unless they say otherwise; changes in a name come on top.
UniProt Q96K49: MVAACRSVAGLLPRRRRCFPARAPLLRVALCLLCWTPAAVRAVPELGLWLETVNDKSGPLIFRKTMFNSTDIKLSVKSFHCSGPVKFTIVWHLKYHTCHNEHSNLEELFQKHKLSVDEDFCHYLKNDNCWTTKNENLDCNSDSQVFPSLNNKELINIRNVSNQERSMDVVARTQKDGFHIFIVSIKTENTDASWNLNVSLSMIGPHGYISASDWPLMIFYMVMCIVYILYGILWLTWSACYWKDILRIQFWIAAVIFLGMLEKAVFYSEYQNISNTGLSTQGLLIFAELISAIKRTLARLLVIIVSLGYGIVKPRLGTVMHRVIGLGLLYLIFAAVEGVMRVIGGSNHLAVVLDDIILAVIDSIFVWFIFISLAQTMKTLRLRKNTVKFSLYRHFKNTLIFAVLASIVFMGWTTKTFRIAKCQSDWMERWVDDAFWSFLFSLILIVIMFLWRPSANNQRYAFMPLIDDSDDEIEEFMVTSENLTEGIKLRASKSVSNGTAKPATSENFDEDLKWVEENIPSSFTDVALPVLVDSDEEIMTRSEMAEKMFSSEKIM
UniProt Q96EB6: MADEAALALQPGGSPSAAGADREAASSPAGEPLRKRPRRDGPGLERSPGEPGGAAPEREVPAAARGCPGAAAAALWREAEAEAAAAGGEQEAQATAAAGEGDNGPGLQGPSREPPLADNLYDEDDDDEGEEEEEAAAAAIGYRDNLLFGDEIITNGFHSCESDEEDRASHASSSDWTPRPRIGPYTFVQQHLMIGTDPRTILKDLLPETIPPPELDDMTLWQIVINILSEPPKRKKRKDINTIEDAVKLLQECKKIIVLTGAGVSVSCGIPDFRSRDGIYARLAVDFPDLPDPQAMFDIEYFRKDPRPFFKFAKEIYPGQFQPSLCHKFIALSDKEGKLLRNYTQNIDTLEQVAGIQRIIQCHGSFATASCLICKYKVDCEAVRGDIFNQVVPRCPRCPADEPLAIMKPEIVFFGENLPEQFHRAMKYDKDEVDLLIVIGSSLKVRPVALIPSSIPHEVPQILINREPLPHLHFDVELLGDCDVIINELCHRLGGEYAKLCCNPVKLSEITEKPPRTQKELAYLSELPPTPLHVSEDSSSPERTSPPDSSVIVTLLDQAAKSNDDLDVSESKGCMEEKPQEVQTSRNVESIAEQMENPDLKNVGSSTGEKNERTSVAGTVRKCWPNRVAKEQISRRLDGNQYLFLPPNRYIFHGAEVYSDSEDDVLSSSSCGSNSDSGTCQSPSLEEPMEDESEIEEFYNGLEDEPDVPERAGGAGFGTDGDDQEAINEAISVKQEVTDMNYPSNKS
UniProt Q969E8: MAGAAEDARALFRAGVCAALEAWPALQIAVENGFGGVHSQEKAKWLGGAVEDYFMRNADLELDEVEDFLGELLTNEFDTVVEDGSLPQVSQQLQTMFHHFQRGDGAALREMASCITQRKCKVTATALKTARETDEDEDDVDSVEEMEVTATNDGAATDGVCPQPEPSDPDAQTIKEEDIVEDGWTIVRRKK
UniProt Q96G23: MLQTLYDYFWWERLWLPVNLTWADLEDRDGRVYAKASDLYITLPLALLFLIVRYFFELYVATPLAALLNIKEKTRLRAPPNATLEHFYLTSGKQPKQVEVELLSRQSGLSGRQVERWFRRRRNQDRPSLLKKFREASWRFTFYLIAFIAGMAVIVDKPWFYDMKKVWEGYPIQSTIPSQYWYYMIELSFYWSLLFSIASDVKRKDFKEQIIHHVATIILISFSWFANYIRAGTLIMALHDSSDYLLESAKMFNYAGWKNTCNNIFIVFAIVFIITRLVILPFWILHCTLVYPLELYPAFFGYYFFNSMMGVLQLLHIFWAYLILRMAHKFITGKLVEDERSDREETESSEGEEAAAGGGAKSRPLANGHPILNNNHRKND
UniProt Q96GA3: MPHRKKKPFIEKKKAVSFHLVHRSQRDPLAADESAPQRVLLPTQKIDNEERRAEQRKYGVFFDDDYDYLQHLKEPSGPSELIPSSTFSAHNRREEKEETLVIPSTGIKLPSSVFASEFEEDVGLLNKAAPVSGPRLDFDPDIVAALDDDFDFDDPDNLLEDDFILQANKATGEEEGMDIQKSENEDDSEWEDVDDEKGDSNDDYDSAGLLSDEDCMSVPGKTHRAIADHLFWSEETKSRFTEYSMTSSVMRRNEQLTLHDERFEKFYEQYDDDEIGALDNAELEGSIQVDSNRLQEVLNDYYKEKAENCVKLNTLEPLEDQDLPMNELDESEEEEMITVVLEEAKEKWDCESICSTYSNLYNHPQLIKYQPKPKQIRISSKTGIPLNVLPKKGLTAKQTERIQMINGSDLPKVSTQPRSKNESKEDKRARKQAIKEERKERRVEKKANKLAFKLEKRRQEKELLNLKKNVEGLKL
UniProt Q96B26, whole entry: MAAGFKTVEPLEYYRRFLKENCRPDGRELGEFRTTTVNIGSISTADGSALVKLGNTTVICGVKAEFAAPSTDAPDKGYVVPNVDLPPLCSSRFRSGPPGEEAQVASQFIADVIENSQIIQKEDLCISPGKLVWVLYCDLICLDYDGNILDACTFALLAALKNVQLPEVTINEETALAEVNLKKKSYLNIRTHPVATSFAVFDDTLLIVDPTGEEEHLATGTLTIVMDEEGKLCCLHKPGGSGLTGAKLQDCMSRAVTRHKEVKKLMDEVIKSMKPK
UniProt Q96AE4: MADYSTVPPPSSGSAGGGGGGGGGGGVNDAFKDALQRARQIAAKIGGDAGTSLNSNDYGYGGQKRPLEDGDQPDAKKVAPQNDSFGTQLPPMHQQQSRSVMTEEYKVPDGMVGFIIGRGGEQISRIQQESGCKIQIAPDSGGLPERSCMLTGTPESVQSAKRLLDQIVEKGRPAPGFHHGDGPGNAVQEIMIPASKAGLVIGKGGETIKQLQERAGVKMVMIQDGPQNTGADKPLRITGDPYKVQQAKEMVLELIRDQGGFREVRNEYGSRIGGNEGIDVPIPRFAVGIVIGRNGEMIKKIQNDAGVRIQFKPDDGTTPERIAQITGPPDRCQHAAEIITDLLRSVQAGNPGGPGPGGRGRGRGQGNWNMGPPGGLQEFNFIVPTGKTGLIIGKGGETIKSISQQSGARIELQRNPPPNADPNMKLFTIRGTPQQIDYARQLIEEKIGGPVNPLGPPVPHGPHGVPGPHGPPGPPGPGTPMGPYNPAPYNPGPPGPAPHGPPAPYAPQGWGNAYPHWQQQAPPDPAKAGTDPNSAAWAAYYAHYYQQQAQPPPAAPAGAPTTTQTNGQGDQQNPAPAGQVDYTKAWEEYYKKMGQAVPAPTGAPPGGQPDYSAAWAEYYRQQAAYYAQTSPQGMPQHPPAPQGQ
UniProt Q96MX6, whole entry: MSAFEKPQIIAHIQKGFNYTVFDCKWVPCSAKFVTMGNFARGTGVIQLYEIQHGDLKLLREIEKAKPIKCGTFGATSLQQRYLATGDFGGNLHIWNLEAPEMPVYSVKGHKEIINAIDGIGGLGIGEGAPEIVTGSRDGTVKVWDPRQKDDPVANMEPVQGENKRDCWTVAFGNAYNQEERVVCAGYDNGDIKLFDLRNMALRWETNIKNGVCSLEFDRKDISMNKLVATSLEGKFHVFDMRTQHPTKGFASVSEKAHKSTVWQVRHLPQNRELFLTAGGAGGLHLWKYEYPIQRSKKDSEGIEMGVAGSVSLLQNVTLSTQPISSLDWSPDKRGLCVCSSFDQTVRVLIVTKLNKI
UniProt Q96KP1: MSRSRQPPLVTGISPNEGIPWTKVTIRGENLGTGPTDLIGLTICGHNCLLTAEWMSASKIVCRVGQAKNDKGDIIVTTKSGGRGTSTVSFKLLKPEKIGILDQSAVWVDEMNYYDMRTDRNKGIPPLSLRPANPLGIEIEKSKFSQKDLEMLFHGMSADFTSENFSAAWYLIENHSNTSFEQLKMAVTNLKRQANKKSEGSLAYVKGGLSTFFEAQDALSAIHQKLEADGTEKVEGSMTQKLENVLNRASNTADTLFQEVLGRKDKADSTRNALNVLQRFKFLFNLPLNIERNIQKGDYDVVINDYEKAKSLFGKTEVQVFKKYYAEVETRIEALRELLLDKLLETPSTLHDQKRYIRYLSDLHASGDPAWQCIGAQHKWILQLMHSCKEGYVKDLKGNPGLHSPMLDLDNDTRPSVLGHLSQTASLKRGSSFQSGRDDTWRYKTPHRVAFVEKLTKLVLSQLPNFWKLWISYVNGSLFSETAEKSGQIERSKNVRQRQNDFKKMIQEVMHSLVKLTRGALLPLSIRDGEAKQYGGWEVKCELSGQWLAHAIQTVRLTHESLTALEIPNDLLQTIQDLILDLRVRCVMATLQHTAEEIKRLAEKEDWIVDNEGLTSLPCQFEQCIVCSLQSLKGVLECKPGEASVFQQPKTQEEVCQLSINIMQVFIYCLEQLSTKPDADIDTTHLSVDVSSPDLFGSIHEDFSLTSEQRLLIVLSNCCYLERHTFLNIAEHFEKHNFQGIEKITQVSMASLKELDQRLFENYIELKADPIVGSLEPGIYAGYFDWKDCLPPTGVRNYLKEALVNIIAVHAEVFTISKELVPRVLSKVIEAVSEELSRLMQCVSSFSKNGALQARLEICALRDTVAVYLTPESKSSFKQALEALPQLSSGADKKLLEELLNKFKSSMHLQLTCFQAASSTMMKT
UniProt Q96DB5: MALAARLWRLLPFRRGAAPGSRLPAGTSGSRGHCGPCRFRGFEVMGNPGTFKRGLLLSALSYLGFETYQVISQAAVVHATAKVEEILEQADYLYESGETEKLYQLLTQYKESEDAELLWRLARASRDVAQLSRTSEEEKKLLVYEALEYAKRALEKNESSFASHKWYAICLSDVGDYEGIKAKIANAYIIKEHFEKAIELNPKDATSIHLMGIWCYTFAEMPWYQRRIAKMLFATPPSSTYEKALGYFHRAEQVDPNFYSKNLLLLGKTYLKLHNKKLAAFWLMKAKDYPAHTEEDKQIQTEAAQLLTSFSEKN
UniProt Q96BN2: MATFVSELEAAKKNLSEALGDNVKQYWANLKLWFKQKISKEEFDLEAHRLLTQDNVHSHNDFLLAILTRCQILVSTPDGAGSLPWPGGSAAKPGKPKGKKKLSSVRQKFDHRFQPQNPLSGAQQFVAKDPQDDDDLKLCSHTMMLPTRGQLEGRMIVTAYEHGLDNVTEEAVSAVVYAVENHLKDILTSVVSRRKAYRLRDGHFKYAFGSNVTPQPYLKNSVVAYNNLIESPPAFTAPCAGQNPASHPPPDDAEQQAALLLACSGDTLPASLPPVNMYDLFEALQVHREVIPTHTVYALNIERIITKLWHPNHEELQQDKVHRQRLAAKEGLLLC
UniProt Q96DX4: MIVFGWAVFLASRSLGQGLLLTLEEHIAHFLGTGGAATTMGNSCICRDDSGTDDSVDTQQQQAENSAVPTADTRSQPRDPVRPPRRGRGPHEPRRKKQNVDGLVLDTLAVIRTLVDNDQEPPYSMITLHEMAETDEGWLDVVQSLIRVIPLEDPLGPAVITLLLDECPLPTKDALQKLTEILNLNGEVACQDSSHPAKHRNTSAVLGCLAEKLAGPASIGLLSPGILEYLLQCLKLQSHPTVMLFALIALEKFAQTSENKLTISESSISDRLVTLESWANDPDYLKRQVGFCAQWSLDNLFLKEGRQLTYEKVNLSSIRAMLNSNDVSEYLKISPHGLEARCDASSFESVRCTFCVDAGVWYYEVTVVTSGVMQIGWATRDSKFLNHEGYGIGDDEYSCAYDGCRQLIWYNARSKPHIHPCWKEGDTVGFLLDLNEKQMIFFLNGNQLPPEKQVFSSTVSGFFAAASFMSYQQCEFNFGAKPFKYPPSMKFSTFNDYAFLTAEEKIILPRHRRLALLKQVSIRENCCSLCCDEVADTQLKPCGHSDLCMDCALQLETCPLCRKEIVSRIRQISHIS
UniProt Q96K31: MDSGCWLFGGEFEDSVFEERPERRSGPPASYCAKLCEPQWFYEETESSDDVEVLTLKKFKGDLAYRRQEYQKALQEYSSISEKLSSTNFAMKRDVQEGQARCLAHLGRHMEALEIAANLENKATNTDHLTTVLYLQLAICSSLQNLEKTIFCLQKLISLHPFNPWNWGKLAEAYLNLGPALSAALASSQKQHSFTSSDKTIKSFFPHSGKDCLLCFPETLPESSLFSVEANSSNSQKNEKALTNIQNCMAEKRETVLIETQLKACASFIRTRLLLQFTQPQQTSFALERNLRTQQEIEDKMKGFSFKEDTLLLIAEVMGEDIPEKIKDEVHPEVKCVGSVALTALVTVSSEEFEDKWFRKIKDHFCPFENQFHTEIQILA
UniProt Q96FZ7: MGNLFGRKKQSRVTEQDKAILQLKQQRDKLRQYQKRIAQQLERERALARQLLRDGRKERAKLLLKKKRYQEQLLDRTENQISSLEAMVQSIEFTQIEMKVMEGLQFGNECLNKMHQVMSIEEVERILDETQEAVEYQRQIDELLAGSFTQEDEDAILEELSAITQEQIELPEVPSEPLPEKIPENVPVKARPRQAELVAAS
UniProt Q96IU4: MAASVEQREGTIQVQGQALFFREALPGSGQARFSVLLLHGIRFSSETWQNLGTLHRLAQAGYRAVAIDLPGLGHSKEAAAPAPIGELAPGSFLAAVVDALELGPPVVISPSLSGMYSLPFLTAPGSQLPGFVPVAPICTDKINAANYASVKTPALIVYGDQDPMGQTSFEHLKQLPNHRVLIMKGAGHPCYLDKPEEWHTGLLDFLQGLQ

Compound: Nc1ncnc2c1ncn2[C@@H]1O[C@H](COP(=O)(O)OP(=O)(O)NP(=O)(O)O)[C@@H](O)[C@H]1O [adenylyl imidodiphosphate]
Assay: NP40-soluble protein abundance relative to vehicle (solubility fold change) (ratio); higher = more soluble protein in presence of AMP-PNP
Method in brief: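 Eight concentrations, 0.1 to 10 mM, were tested on Jurkat crude lysate for 10 min at room temperature and then 3 min at 37 °C, in three independent experiments. The lysate was solubilised with 0.8% NP40 and benzonase, ultracentrifuged, and the supernatant TMT-labelled for LC-MS/MS. Each value is the fold change against the detergent-processed vehicle in its own replicate, from vsn-normalised intensities.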

Target	NP40-soluble protein abundance (concentration: 1mM)	NP40-soluble protein abundance (concentration: 2mM)	NP40-soluble protein abundance (concentration: 4mM)	NP40-soluble protein abundance (concentration: 6mM)	NP40-soluble protein abundance (concentration: 8mM)	NP40-soluble protein abundance (concentration: 10mM)
UniProt Q96K49 and related entries	0.99 ± 0.013	1.01 ± 0.027	0.984 ± 0.026	0.9718 ± 0.005	0.9653 ± 0.0019	0.9716 ± 0.0066
UniProt Q96E11 and related entries	0.973 ± 0.013	0.983 ± 0.024	0.943 ± 0.045	0.93 ± 0.013	0.903 ± 0.023	0.911 ± 0.035
Sirt1 (UniProt Q96EB6)	1.01 ± 0.031	1.04 ± 0.02	1.01 ± 0.024	1 ± 0.021	0.952 ± 0.013	0.979 ± 0.02
TESC (UniProt Q96BS2)	0.98 ± 0.036	0.994 ± 0.012	0.997 ± 0.031	0.957 ± 0.017	0.962 ± 0.027	0.921 ± 0.029
HSPBAP1 (UniProt Q96EW2)	1 ± 0.03	0.958 ± 0.012	0.9721 ± 0.005	0.967 ± 0.03	0.969 ± 0.015	0.981 ± 0.013
TSR2 (UniProt Q969E8)	1.05 ± 0.04	1.05 ± 0.059	1.04 ± 0.053	1.1 ± 0.025	1.1 ± 0.038	1.08 ± 0.087
PYCR2 (UniProt Q96C36)	0.98 ± 0.028	1.01 ± 0.051	0.997 ± 0.013	1.01 ± 0.011	0.9755 ± 0.0097	1 ± 0.032
UniProt Q96E29 and related entries	0.962 ± 0.025	1 ± 0.016	0.97 ± 0.066	0.957 ± 0.064	0.96 ± 0.051	0.918 ± 0.054
PPWD1 (UniProt Q96BP3)	0.984 ± 0.013	0.933 ± 0.087	1 ± 0.06	1.01 ± 0.037	1.04 ± 0.042	1.02 ± 0.036
CCDC115 (UniProt Q96NT0)	0.994 ± 0.046	1.01 ± 0.043	1.01 ± 0.035	1 ± 0.04	0.968 ± 0.06	0.992 ± 0.041
TOE1 (UniProt Q96GM8)	1.02 ± 0.015	0.971 ± 0.12	1.03 ± 0.048	1.02 ± 0.041	1.1 ± 0.064	1.15 ± 0.19
UniProt Q969E2 and related entries	1.06 ± 0.019	1 ± 0.018	1.06 ± 0.015	1.02 ± 0.022	0.9629 ± 0.0036	0.973 ± 0.027
UniProt Q96G23	1 ± 0.068	0.914 ± 0.058	0.953 ± 0.021	0.914 ± 0.045	0.938 ± 0.018	0.939 ± 0.015
ITPKC (UniProt Q96DU7)	0.967 ± 0.031	0.966 ± 0.049	0.951 ± 0.051	0.973 ± 0.042	0.953 ± 0.022	0.949 ± 0.05
DCUN1D1 (UniProt Q96GG9)	0.996 ± 0.02	0.99 ± 0.034	0.999 ± 0.031	1.03 ± 0.0087	1.01 ± 0.015	1 ± 0.015
UniProt Q96FJ2	1.06 ± 0.022	1.08 ± 0.071	1.04 ± 0.059	0.998 ± 0.024	1.03 ± 0.048	0.987 ± 0.025
LTV1 (UniProt Q96GA3)	1.01 ± 0.04	1.11 ± 0.046	1.02 ± 0.063	1.01 ± 0.052	0.998 ± 0.041	1.01 ± 0.048
EXOSC8 (UniProt Q96B26)	1.05 ± 0.07	1.06 ± 0.051	1.11 ± 0.091	1.19 ± 0.08	1.24 ± 0.097	1.25 ± 0.15
UniProt Q96AE4 and related entries	1.014 ± 0.0086	1.06 ± 0.058	0.996 ± 0.034	0.973 ± 0.017	0.944 ± 0.011	0.936 ± 0.035
RBM14 (UniProt Q96PK6)	1.07 ± 0.049	1.16 ± 0.089	1.23 ± 0.12	1.3 ± 0.14	1.31 ± 0.17	1.3 ± 0.16

Record cards, as listed above. Order of values: NP40-soluble protein abundance (concentration: 1mM) | NP40-soluble protein abundance (concentration: 2mM) | NP40-soluble protein abundance (concentration: 4mM) | NP40-soluble protein abundance (concentration: 6mM) | NP40-soluble protein abundance (concentration: 8mM) | NP40-soluble protein abundance (concentration: 10mM)
DCUN1D1 (UniProt Q96GG9) reads 0.996 ± 0.02 | 0.99 ± 0.034 | 0.999 ± 0.031 | 1.03 ± 0.0087 | 1.01 ± 0.015 | 1 ± 0.015
UniProt Q96E29 and related entries reads 0.962 ± 0.025 | 1 ± 0.016 | 0.97 ± 0.066 | 0.957 ± 0.064 | 0.96 ± 0.051 | 0.918 ± 0.054

Next part

Target	NP40-soluble protein abundance (concentration: 1mM)	NP40-soluble protein abundance (concentration: 2mM)	NP40-soluble protein abundance (concentration: 4mM)	NP40-soluble protein abundance (concentration: 6mM)	NP40-soluble protein abundance (concentration: 8mM)	NP40-soluble protein abundance (concentration: 10mM)
WDR92 (UniProt Q96MX6)	0.98 ± 0.021	0.972 ± 0.039	1.03 ± 0.037	1.09 ± 0.06	1.09 ± 0.043	1.12 ± 0.059
UniProt Q969T7 and related entries	0.981 ± 0.054	0.95 ± 0.043	0.999 ± 0.029	0.966 ± 0.025	0.96 ± 0.042	0.963 ± 0.046
MMAB (UniProt Q96EY8)	0.9943 ± 0.0099	1.05 ± 0.048	1 ± 0.037	1.01 ± 0.029	0.978 ± 0.019	0.99 ± 0.022
RMI2 (UniProt Q96E14)	0.995 ± 0.023	0.998 ± 0.031	0.98 ± 0.037	1 ± 0.035	1 ± 0.068	0.993 ± 0.094
EAF1 (UniProt Q96JC9)	1.02 ± 0.031	1.06 ± 0.081	1.03 ± 0.02	1.05 ± 0.04	1.03 ± 0.047	1.04 ± 0.074
EXOC2 (UniProt Q96KP1)	0.984 ± 0.02	0.991 ± 0.048	0.972 ± 0.018	0.994 ± 0.015	1.004 ± 0.003	1 ± 0.026
UniProt Q96AE7 and related entries	1.05 ± 0.039	1.06 ± 0.057	1.03 ± 0.061	0.984 ± 0.032	0.993 ± 0.0063	0.981 ± 0.026
UniProt Q96QT6 and related entries	0.994 ± 0.022	1.0145 ± 0.00096	1.002 ± 0.0092	1.027 ± 0.0029	1.05 ± 0.047	1.07 ± 0.043
DTNBP1 (UniProt Q96EV8)	1.05 ± 0.057	1.07 ± 0.062	1.06 ± 0.038	0.982 ± 0.016	0.988 ± 0.043	0.98 ± 0.08
UniProt Q96DB5	0.983 ± 0.014	0.991 ± 0.011	0.985 ± 0.011	0.994 ± 0.025	0.994 ± 0.028	0.981 ± 0.025
UniProt Q96BN2	1.04 ± 0.033	1.04 ± 0.087	1.03 ± 0.093	1.08 ± 0.055	1.06 ± 0.051	1.07 ± 0.12
RSPRY1 (UniProt Q96DX4)	0.999 ± 0.012	0.984 ± 0.011	0.977 ± 0.025	0.985 ± 0.04	0.985 ± 0.022	1 ± 0.04
LRRC45 (UniProt Q96CN5)	0.977 ± 0.065	0.919 ± 0.029	0.969 ± 0.022	0.97 ± 0.015	1 ± 0.032	0.956 ± 0.03
UniProt Q92989 and related entries	1 ± 0.033	0.979 ± 0.025	1.01 ± 0.016	1.04 ± 0.062	1.07 ± 0.016	1.06 ± 0.061
C8orf76 (UniProt Q96K31)	1.01 ± 0.015	1 ± 0.014	0.975 ± 0.026	0.974 ± 0.041	0.983 ± 0.024	0.986 ± 0.017
CHMP6 (UniProt Q96FZ7)	1.03 ± 0.028	1.05 ± 0.022	1.03 ± 0.038	1.01 ± 0.03	1.02 ± 0.032	0.964 ± 0.033
UniProt Q92973 and related entries	0.979 ± 0.053	0.912 ± 0.066	1.03 ± 0.015	1 ± 0.08	1.03 ± 0.083	0.978 ± 0.057
USP13 (UniProt Q92995)	1.01 ± 0.0077	0.946 ± 0.068	0.996 ± 0.03	0.949 ± 0.026	0.968 ± 0.026	0.951 ± 0.033
ABHD14B (UniProt Q96IU4)	0.9947 ± 0.0093	0.98 ± 0.015	0.96 ± 0.011	0.967 ± 0.025	0.97 ± 0.023	0.978 ± 0.033
FAHD2A (UniProt Q96GK7)	1.022 ± 0.009	0.954 ± 0.086	1 ± 0.019	0.963 ± 0.018	0.971 ± 0.016	0.982 ± 0.031
